From article PMC11354203
No constants are given. Whether binding was seen depends on the method and setting. Some binding calls cover weakened binding; strength is not graded here. Where a sequence is shown, tags or fusion partners need not be part of it.

Biological target: T1, 3Flag-Aurora B^AUK1 (Trypanosoma brucei) (UniProt Q384J7)
T1 sequence: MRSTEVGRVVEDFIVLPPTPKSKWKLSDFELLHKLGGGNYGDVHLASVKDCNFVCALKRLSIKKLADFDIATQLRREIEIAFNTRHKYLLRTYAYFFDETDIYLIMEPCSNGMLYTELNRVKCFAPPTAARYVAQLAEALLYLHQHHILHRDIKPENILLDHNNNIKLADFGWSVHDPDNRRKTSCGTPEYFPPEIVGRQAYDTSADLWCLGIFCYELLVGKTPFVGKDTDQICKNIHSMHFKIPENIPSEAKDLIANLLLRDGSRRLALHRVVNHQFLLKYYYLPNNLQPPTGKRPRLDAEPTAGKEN
Experiment: co-purification of co-expressed proteins; 3Flag-Aurora B^AUK1 (or K58R) and INCENP^CPC1 from one pACEBac plasmid in Sf9 cells, purified by a protocol described previously

- binding: binds
B1: INCENP^CPC1 (protein, UniProt Q586F4 1-263)
chain: MSNPWNAKLVEELLFRQYEKGEDVSMLLPPPPALSVDQYLKEYEQSTKVLFAYVRNGPANALTPQNINNPRMYGGTPTKGSSSMQRTGNQGGATCATTSSSSACGVDSKAQMQRHPRGLDGSQSAAPSLPLTAGDAAAGQGSMAPPEHIRKRIEWPATVPTNSALKSNSRSRVANLTTKRVAAQERVDPDLIFMQNPEELPLHTIFAKYPKAVESIAALRGGSGDWREDTFTEEEEILYKRELRYSHMGPSQCGFFRSNLIQR
